No constants are given. Whether binding was seen depends on the method and setting. Some results given as binding are weak or reduced against the parent protein; the word gives no strength.

This test deals with T1, LexA protein, P0A7C2.
T1 chain: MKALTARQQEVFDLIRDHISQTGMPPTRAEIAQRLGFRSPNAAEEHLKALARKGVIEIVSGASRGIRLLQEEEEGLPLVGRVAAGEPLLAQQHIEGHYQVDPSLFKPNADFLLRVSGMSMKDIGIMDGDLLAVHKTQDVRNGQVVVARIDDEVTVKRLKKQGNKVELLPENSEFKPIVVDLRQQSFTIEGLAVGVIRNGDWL
Put plainly: cross-linking; glutaraldehyde cross-linking of a single protein, SDS-PAGE; LexA as dimerisation-positive control; both purified. The following applies: remark: other sources report otherwise.

B1: LexA protein, P0A7C2 1-202 (protein)
chain: T1 chain
As to B1, the binding result is given as “binds”.

These data come from publication PMC3917654.
